Experimental data taken from article doi:10.1101/2025.08.18.670752.
Results are given in words; binding and its absence hold for the method and conditions named. Binding seen in cells or lysates may run through a third protein. Some results given as binding are weak or reduced against the parent protein; the word gives no strength. Where a sequence is shown, tags or fusion partners need not be part of it.

Sequences of proteins named here, by UniProt entry; tags and fusion partners are left off. A change or cut given only in a name is not applied to a line headed by its entry.
UniProt O00429: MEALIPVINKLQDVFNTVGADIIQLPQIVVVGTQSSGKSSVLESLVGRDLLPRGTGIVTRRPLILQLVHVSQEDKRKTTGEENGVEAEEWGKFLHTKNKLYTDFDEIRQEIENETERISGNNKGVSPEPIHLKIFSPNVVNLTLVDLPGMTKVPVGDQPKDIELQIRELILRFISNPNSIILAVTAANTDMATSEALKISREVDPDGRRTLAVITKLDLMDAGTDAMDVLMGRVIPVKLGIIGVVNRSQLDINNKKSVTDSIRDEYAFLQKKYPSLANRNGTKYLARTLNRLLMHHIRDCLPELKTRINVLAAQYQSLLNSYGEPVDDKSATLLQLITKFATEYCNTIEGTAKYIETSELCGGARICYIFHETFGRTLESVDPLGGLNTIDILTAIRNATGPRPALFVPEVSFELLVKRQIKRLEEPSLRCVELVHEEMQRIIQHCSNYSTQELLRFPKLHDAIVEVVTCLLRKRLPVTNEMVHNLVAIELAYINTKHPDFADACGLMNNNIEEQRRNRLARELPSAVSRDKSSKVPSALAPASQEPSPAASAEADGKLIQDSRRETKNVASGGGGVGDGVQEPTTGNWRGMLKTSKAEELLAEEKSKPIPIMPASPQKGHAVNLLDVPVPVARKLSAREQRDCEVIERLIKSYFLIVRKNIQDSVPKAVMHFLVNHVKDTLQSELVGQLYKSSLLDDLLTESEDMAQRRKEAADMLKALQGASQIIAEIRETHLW

Biological target: T1, GFP-tagged FATE1 (Fetal and Adult Testis Expressed 1), full-length wild type (human) (UniProt Q969F0)
T1 sequence: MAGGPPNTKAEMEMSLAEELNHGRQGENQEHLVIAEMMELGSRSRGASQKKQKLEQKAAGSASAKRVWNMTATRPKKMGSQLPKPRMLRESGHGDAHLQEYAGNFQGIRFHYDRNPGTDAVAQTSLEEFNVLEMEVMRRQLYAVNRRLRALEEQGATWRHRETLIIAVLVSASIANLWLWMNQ
Test: co-IP

- binding: binds weakly
Substance: RFP-tagged dominant-negative, GTPase-deficient Drp1 mutant (mCherry-Drp1(K38A)) (from UniProt O00429 1-736)
